These are yes or no findings as the source states them, for the method shown. Binding seen in cells or lysates may run through a third protein. A yes stands for co-enrichment or nearness to the bait. Other partners may have been found. Sequences can lack the tags named with a protein.
T1: C-terminal FLAG-tagged mouse WDR72 (WD repeat-containing protein 72) (mouse) (UniProt D3YYM4)
T1 sequence: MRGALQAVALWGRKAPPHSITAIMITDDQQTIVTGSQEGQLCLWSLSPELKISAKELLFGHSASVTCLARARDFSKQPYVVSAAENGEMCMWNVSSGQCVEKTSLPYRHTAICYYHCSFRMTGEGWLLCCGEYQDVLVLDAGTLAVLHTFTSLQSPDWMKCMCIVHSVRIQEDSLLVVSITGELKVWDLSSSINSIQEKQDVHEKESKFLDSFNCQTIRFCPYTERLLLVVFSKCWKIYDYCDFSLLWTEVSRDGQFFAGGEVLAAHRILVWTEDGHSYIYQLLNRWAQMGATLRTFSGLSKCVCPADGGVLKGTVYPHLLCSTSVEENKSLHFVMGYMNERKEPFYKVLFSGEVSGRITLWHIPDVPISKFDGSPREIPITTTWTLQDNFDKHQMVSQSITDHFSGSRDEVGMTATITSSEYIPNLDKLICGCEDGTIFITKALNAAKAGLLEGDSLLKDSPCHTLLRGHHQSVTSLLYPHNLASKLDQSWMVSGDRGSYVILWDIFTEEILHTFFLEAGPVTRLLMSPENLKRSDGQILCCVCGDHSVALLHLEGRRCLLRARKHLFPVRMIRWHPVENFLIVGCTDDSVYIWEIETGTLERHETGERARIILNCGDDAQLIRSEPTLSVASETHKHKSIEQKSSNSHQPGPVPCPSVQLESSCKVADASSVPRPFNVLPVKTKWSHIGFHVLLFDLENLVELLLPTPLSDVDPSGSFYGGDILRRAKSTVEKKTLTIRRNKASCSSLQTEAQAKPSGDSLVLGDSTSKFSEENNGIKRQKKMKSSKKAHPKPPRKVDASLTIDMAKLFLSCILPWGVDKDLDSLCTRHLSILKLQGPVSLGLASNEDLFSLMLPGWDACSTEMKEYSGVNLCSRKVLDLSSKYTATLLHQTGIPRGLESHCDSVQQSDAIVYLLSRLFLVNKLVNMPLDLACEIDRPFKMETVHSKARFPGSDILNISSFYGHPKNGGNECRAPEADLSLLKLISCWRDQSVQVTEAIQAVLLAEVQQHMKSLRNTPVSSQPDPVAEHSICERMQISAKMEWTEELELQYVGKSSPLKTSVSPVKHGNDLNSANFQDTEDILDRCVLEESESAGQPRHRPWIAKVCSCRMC

B1: EXOSC10 (protein, UniProt Q01780 1-885)
chain: MAPPSTREPRVLSATSATKSDGEMVLPGFPDADSFVKFALGSVVAVTKASGGLPQFGDEYDFYRSFPGFQAFCETQGDRLLQCMSRVMQYHGCRSNIKDRSKVTELEDKFDLLVDANDVILERVGILLDEASGVNKNQQPVLPAGLQVPKTVVSSWNRKAAEYGKKAKSETFRLLHAKNIIRPQLKFREKIDNSNTPFLPKIFIKPNAQKPLPQALSKERRERPQDRPEDLDVPPALADFIHQQRTQQVEQDMFAHPYQYELNHFTPADAVLQKPQPQLYRPIEETPCHFISSLDELVELNEKLLNCQEFAVDLEHHSYRSFLGLTCLMQISTRTEDFIIDTLELRSDMYILNESLTDPAIVKVFHGADSDIEWLQKDFGLYVVNMFDTHQAARLLNLGRHSLDHLLKLYCNVDSNKQYQLADWRIRPLPEEMLSYARDDTHYLLYIYDKMRLEMWERGNGQPVQLQVVWQRSRDICLKKFIKPIFTDESYLELYRKQKKHLNTQQLTAFQLLFAWRDKTARREDESYGYVLPNHMMLKIAEELPKEPQGIIACCNPVPPLVRQQINEMHLLIQQAREMPLLKSEVAAGVKKSGPLPSAERLENVLFGPHDCSHAPPDGYPIIPTSGSVPVQKQASLFPDEKEDNLLGTTCLIATAVITLFNEPSAEDSKKGPLTVAQKKAQNIMESFENPFRMFLPSLGHRAPVSQAAKFDPSTKIYEISNRWKLAQVQVQKDSKEAVKKKAAEQTAAREQAKEACKAAAEQAISVRQQVVLENAAKKRERATSDPRTTEQKQEKKRLKISKKPKDPEPPEKEFTPYDYSQSDFKAFAGNSKSKVSSQFDPNKQTPSGKKCIAAKKIKQSVGNKSMSFPTGKSDRGFRYNWPQR
B2: EDC4 (protein, UniProt Q6P2E9 1-1401)
chain: MASCASIDIEDATQHLRDILKLDRPAGGPSAESPRPSSAYNGDLNGLLVPDPLCSGDSTSANKTGLRTMPPINLQEKQVICLSGDDSSTCIGILAKEVEIVASSDSSISSKARGSNKVKIQPVAKYDWEQKYYYGNLIAVSNSFLAYAIRAANNGSAMVRVISVSTSERTLLKGFTGSVADLAFAHLNSPQLACLDEAGNLFVWRLALVNGKIQEEILVHIRQPEGTPLNHFRRIIWCPFIPEESEDCCEESSPTVALLHEDRAEVWDLDMLRSSHSTWPVDVSQIKQGFIVVKGHSTCLSEGALSPDGTVLATASHDGYVKFWQIYIEGQDEPRCLHEWKPHDGRPLSCLLFCDNHKKQDPDVPFWRFLITGADQNRELKMWCTVSWTCLQTIRFSPDIFSSVSVPPSLKVCLDLSAEYLILSDVQRKVLYVMELLQNQEEGHACFSSISEFLLTHPVLSFGIQVVSRCRLRHTEVLPAEEENDSLGADGTHGAGAMESAAGVLIKLFCVHTKALQDVQIRFQPQLNPDVVAPLPTHTAHEDFTFGESRPELGSEGLGSAAHGSQPDLRRIVELPAPADFLSLSSETKPKLMTPDAFMTPSASLQQITASPSSSSSGSSSSSSSSSSSLTAVSAMSSTSAVDPSLTRPPEELTLSPKLQLDGSLTMSSSGSLQASPRGLLPGLLPAPADKLTPKGPGQVPTATSALSLELQEVEPLGLPQASPSRTRSPDVISSASTALSQDIPEIASEALSRGFGSSAPEGLEPDSMASAASALHLLSPRPRPGPELGPQLGLDGGPGDGDRHNTPSLLEAALTQEASTPDSQVWPTAPDITRETCSTLAESPRNGLQEKHKSLAFHRPPYHLLQQRDSQDASAEQSDHDDEVASLASASGGFGTKVPAPRLPAKDWKTKGSPRTSPKLKRKSKKDDGDAAMGSRLTEHQVAEPPEDWPALIWQQQRELAELRHSQEELLQRLCTQLEGLQSTVTGHVERALETRHEQEQRRLERALAEGQQRGGQLQEQLTQQLSQALSSAVAGRLERSIRDEIKKTVPPCVSRSLEPMAGQLSNSVATKLTAVEGSMKENISKLLKSKNLTDAIARAAADTLQGPMQAAYREAFQSVVLPAFEKSCQAMFQQINDSFRLGTQEYLQQLESHMKSRKAREQEAREPVLAQLRGLVSTLQSATEQMAATVAGSVRAEVQHQLHVAVGSLQESILAQVQRIVKGEVSVALKEQQAAVTSSIMQAMRSAAGTPVPSAHLDCQAQQAHILQLLQQGHLNQAFQQALTAADLNLVLYVCETVDPAQVFGQPPCPLSQPVLLSLIQQLASDLGTRTDLKLSYLEEAVMHLDHSDPITRDHMGSVMAQVRQKLFQFLQAEPHNSLGKAARRLSLMLHGLVTPSLP
B3: XRN2 (protein, UniProt Q9H0D6 1-950)
chain: MGVPAFFRWLSRKYPSIIVNCVEEKPKECNGVKIPVDASKPNPNDVEFDNLYLDMNGIIHPCTHPEDKPAPKNEDEMMVAIFEYIDRLFSIVRPRRLLYMAIDGVAPRAKMNQQRSRRFRASKEGMEAAVEKQRVREEILAKGGFLPPEEIKERFDSNCITPGTEFMDNLAKCLRYYIADRLNNDPGWKNLTVILSDASAPGEGEHKIMDYIRRQRAQPNHDPNTHHCLCGADADLIMLGLATHEPNFTIIREEFKPNKPKPCGLCNQFGHEVKDCEGLPREKKGKHDELADSLPCAEGEFIFLRLNVLREYLERELTMASLPFTFDVERSIDDWVFMCFFVGNDFLPHLPSLEIRENAIDRLVNIYKNVVHKTGGYLTESGYVNLQRVQMIMLAVGEVEDSIFKKRKDDEDSFRRRQKEKRKRMKRDQPAFTPSGILTPHALGSRNSPGSQVASNPRQAAYEMRMQNNSSPSISPNTSFTSDGSPSPLGGIKRKAEDSDSEPEPEDNVRLWEAGWKQRYYKNKFDVDAADEKFRRKVVQSYVEGLCWVLRYYYQGCASWKWYYPFHYAPFASDFEGIADMPSDFEKGTKPFKPLEQLMGVFPAASGNFLPPSWRKLMSDPDSSIIDFYPEDFAIDLNGKKYAWQGVALLPFVDERRLRAALEEVYPDLTPEETRRNSLGGDVLFVGKHHPLHDFILELYQTGSTEPVEVPPELCHGIQGKFSLDEEAILPDQIVCSPVPMLRDLTQNTVVSINFKDPQFAEDYIFKAVMLPGARKPAAVLKPSDWEKSSNGRQWKPQLGFNRDRRPVHLDQAAFRTLGHVMPRGSGTGIYSNAAPPPVTYQGNLYRPLLRGQAQIPKLMSNMRPQDSWRGPPPLFQQQRFDRGVGAEPLLPWNRMLQTQNAAFQPNQYQMLAGPGGYPPRRDDRGGRQGYPREGRKYPLPPPSGRYNWN

Target: T1, C-terminal FLAG-tagged mouse WDR72 (WD repeat-containing protein 72) (mouse)
Test: affinity purification with mass spectrometry; C-terminal FLAG-tagged mouse WDR72 overexpressed in HEK293; NP40 lysate; anti-FLAG antibody on protein A Dynabeads, 30 min at room temperature, washed twice; six CBB-stained bands cut from the SDS-PAGE gel, trypsin, LC-MS/MS

binding, binds:
B1
B2
B3
